# Experimental data as given in PMC7819943, “Rice protein-binding microarrays: a tool to detect cis-acting elements near promoter regions in rice”.
# Amino acid sequences for entries named in this document (tags omitted).
# UniProt Q0JBA9, entry or part of it: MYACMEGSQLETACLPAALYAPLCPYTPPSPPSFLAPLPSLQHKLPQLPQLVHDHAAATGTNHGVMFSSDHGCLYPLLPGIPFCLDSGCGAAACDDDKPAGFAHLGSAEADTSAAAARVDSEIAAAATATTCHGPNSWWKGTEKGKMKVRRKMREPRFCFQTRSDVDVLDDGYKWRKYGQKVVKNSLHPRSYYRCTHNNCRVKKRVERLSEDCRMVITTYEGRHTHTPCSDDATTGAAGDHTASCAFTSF
# The other results are listed elsewhere or left out.
# Target: OsWRKY34 (Oryza sativa, UniProt Q0JBA9 1-250)
# Experiment: protein-binding microarray (RPBM); PBS, 2% BSA, 51.3 ng/ul salmon testes DNA, 50 uM zinc acetate, 200 nM TF, 25 C, 1 h; high values mean tight binding
# Conditions: protein: recombinant; tags: N-terminal polyhistidine and DsRed monomer fusion (pET32a); label: CyDye5-dUTP incorporated in the synthesized complementary strand; 3' TTTTT single-stranded linker to array surface; dsDNA, one strand shown
# In short: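 For the binding signal, per-feature fluorescence intensity was read in arbitrary units on an Axon 4000B scanner. Before scanning, a 2% BSA-blocked custom Agilent array made double-stranded with Cy5-dUTP was washed after 1 h at 25 °C with 200 nM protein and 50 µM zinc acetate. The proteins were Ni–NTA-purified transcription factors with N-terminal polyhistidine and DsRed fusions, expressed in E. coli BL21-CodonPlus.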
row,Sequence,binding signal
1,TATATCACATTTAATTATTTTTCCCATGTTCTTGTTTTAACGGAGTCACCTAGTGCAG,9480 fluorescence intensity (a.u.)
2,TAATATATCACTCATCCCGTATCCTATCCCATATTATTTCCGGAGTCACCTAGTGCAG,8830 fluorescence intensity (a.u.)
3,ATAACTCGGGTCGGACTCGGACCTCAGGCCCACGTATTCCCGGAGTCACCTAGTGCAG,8400 fluorescence intensity (a.u.)
4,CTCCCGGAGCTCGGCCGCCTCTTCACCTCCGACACCCGCGCGGAGTCACCTAGTGCAG,8300 fluorescence intensity (a.u.)
5,AGTACACTTTCTGATGCATTGTACCTTGAGTTTTAGGATGCGGAGTCACCTAGTGCAG,8460 fluorescence intensity (a.u.)
6,ACCCCAGCAACCAACCTCTCGTCTCCGCCGCTTCGCCCTCCGGAGTCACCTAGTGCAG,15500 fluorescence intensity (a.u.)
7,TGGACTCTTCTTTTCTTTTTTTTTCTTTTTCTCCGATTAACGGAGTCACCTAGTGCAG,9490 fluorescence intensity (a.u.)
8,GCCCATGAGCTTGCCTCGTCTCCGGCGGCTACGCGCTGCCCGGAGTCACCTAGTGCAG,8590 fluorescence intensity (a.u.)
9,TGCGGATAGACTTCCACAACTGCCATGTCACCGCGATGTTCGGAGTCACCTAGTGCAG,8390 fluorescence intensity (a.u.)
10,TTGTTTCTGTTTCAGGTATGAGGTCATCATTCTCCAGTATCGGAGTCACCTAGTGCAG,8240 fluorescence intensity (a.u.)
11,CTCTGCCCGGACGCCTACAGCTACCCCAAGGACGACCAGACGGAGTCACCTAGTGCAG,9390 fluorescence intensity (a.u.)
12,TGTGTAGAAATTCTCTTTCCTCATTTATTCATTTGCTATACGGAGTCACCTAGTGCAG,9310 fluorescence intensity (a.u.)
13,TCTCGAAAGCTTTGTGTCGGTTTGACTTTCGATATTTTCTCGGAGTCACCTAGTGCAG,8600 fluorescence intensity (a.u.)
14,TCACACGTCTCTCTCTCTCTCTCTTTAACCACCGCCTTCCCGGAGTCACCTAGTGCAG,10200 fluorescence intensity (a.u.)
15,TTTTGGTTGGCTTCTCGATCGTTGGAGGGGTGTTTTTTTGCGGAGTCACCTAGTGCAG,15600 fluorescence intensity (a.u.)
16,TTTACATTCATTTCTCTATACGAGCATGGGCCGCACTATACGGAGTCACCTAGTGCAG,9830 fluorescence intensity (a.u.)
17,GTGGGAGGCGGTGGTGGTGGTGAAGGAGGTGGCCTTGGAGCGGAGTCACCTAGTGCAG,11400 fluorescence intensity (a.u.)
18,TTTCCCTGTCTACAGTACAACCTCGTGCGCTTCATCAATTCGGAGTCACCTAGTGCAG,8340 fluorescence intensity (a.u.)
19,TTTATTATTTTTCTGGATCGGATTGCCACGTAAGCGCCACCGGAGTCACCTAGTGCAG,8610 fluorescence intensity (a.u.)
20,AACGTCTATCTTTTCATTTCGTATTTTTTTTTGGCTTTGACGGAGTCACCTAGTGCAG,11800 fluorescence intensity (a.u.)
21,ACAAACAATTTCTATCAAAGTTTATCGCTTTTTTGTCCTTCGGAGTCACCTAGTGCAG,8200 fluorescence intensity (a.u.)

# Part of the list above, reformatted.
row	Sequence	binding signal
4	CTCCCGGAGCTCGGCCGCCTCTTCACCTCCGACACCCGCGCGGAGTCACCTAGTGCAG	8300 fluorescence intensity (a.u.)
5	AGTACACTTTCTGATGCATTGTACCTTGAGTTTTAGGATGCGGAGTCACCTAGTGCAG	8460 fluorescence intensity (a.u.)
6	ACCCCAGCAACCAACCTCTCGTCTCCGCCGCTTCGCCCTCCGGAGTCACCTAGTGCAG	15500 fluorescence intensity (a.u.)
7	TGGACTCTTCTTTTCTTTTTTTTTCTTTTTCTCCGATTAACGGAGTCACCTAGTGCAG	9490 fluorescence intensity (a.u.)
8	GCCCATGAGCTTGCCTCGTCTCCGGCGGCTACGCGCTGCCCGGAGTCACCTAGTGCAG	8590 fluorescence intensity (a.u.)
9	TGCGGATAGACTTCCACAACTGCCATGTCACCGCGATGTTCGGAGTCACCTAGTGCAG	8390 fluorescence intensity (a.u.)
10	TTGTTTCTGTTTCAGGTATGAGGTCATCATTCTCCAGTATCGGAGTCACCTAGTGCAG	8240 fluorescence intensity (a.u.)
11	CTCTGCCCGGACGCCTACAGCTACCCCAAGGACGACCAGACGGAGTCACCTAGTGCAG	9390 fluorescence intensity (a.u.)
12	TGTGTAGAAATTCTCTTTCCTCATTTATTCATTTGCTATACGGAGTCACCTAGTGCAG	9310 fluorescence intensity (a.u.)
13	TCTCGAAAGCTTTGTGTCGGTTTGACTTTCGATATTTTCTCGGAGTCACCTAGTGCAG	8600 fluorescence intensity (a.u.)
14	TCACACGTCTCTCTCTCTCTCTCTTTAACCACCGCCTTCCCGGAGTCACCTAGTGCAG	10200 fluorescence intensity (a.u.)
15	TTTTGGTTGGCTTCTCGATCGTTGGAGGGGTGTTTTTTTGCGGAGTCACCTAGTGCAG	15600 fluorescence intensity (a.u.)

# (next part)

row,Sequence,binding signal
1,TTTAATCGTCCGTCCGTTGCAAGTCATCAGCTGCAGCCTCCGGAGTCACCTAGTGCAG,11500 fluorescence intensity (a.u.)
2,CGTTAGATTCCCCTACCAGTCAATCTGTCATCTCTTTACCCGGAGTCACCTAGTGCAG,8790 fluorescence intensity (a.u.)
3,TGATGATTTTGTATATTTATGTTCTTCCATCCATACCTTACGGAGTCACCTAGTGCAG,9670 fluorescence intensity (a.u.)
4,CCTTCACCACTGCAACTTGCTCATCACCCACACACCAAGCCGGAGTCACCTAGTGCAG,12200 fluorescence intensity (a.u.)
5,CGGTTACTTCGCATCTAGTTCTTGTTAGGTCTCCGGCTCTCGGAGTCACCTAGTGCAG,9760 fluorescence intensity (a.u.)
6,TCCACTCCCACTGACCACACCAGGGTTTACGATTCCGGTCCGGAGTCACCTAGTGCAG,8470 fluorescence intensity (a.u.)
7,ACTCGCACTTATTCTGTTATTCACATGGCATTGGTTGCGTCGGAGTCACCTAGTGCAG,12400 fluorescence intensity (a.u.)
8,ATTCTCAAAATCGAATTTGTTTTTATATTTCCCTTACTGTCGGAGTCACCTAGTGCAG,14700 fluorescence intensity (a.u.)
9,ATAATTATTATTTATTTTCTTGTGACTTAGTTTATCACTACGGAGTCACCTAGTGCAG,9000 fluorescence intensity (a.u.)
10,CCATCATTTTTCTCACTTCAAAATATATTTTTTTCATGAACGGAGTCACCTAGTGCAG,9420 fluorescence intensity (a.u.)
11,CTATTTTACTATTTATTTTTGTTAGTTCTACTGCCAGTTTCGGAGTCACCTAGTGCAG,9000 fluorescence intensity (a.u.)
12,CATGCCACCGCCGCGCTGCCCGTGCCCTCCATGTCCAAGACGGAGTCACCTAGTGCAG,8150 fluorescence intensity (a.u.)
13,TCTCTATCCAGGTAGCGCCCAAATAAATCAGTTACTACACCGGAGTCACCTAGTGCAG,8550 fluorescence intensity (a.u.)
14,ACGCTCTCCACTCCACAGTCCACACCTCCTGTCACACTGACGGAGTCACCTAGTGCAG,9420 fluorescence intensity (a.u.)
15,CTAATTTTTTCTATGGTTTGTTCCTATGTGCTCCTAAGTGCGGAGTCACCTAGTGCAG,10500 fluorescence intensity (a.u.)
16,TGTAGTTGTGAGTGTATTCGTTTGTACTGTTTTTTTTATACGGAGTCACCTAGTGCAG,11900 fluorescence intensity (a.u.)
17,TGATGAGCCGCCGCCGCCGCATCGTCGTCGTCTCCCGATGCGGAGTCACCTAGTGCAG,8430 fluorescence intensity (a.u.)
18,CTTTCTGTAGAGCCTGATATGTTACCTGCAATGGATTTGTCGGAGTCACCTAGTGCAG,8050 fluorescence intensity (a.u.)
19,CCCACCCGTGTCCATAGAAATTCCTCTATCCTTGATTGATCGGAGTCACCTAGTGCAG,9770 fluorescence intensity (a.u.)
20,ATATTCCTAGCATTTTTCATGTTTCTTCGTTTTAACACCACGGAGTCACCTAGTGCAG,8420 fluorescence intensity (a.u.)
21,AATCGGATTCTTTTTTTTTCTTTTTTTCACCCAATTTTTTCGGAGTCACCTAGTGCAG,10800 fluorescence intensity (a.u.)

row,Sequence,binding signal
1,ATTGTAATTAACTAATCATCATGCGTGTGCATTGTATTTACGGAGTCACCTAGTGCAG,8450 fluorescence intensity (a.u.)
2,GAGTGGGCTTTGAGGTTGTATATGTCAATACTGCATGAAACGGAGTCACCTAGTGCAG,8520 fluorescence intensity (a.u.)
3,GCCCTTGCTACATCGTCCCTATAAGCTGAAGCAGTCGATACGGAGTCACCTAGTGCAG,8870 fluorescence intensity (a.u.)
4,AATGCTTATTTTACTATCTTATTTTCCTTTTTTTTCCAATCGGAGTCACCTAGTGCAG,8090 fluorescence intensity (a.u.)
5,ATTGTTGTGGGCCCCGCGTGTCATCATCATTGCTGTCCTCCGGAGTCACCTAGTGCAG,8170 fluorescence intensity (a.u.)
6,TCCACATCACCACTTTGGTTCCTCCCATTTTTCATTTCAACGGAGTCACCTAGTGCAG,8390 fluorescence intensity (a.u.)
7,ACGAACGGTCAAACATGTTTAAAAAAGTCAACGGCGTTAACGGAGTCACCTAGTGCAG,9890 fluorescence intensity (a.u.)
8,AAAGAAGAAACCTTCTCTACTCCCTCTGTCTCCTCACATCCGGAGTCACCTAGTGCAG,8890 fluorescence intensity (a.u.)
9,GGTCATCACTCGGTCAGGTTCTCGTCTTGCAAATCCGCTCCGGAGTCACCTAGTGCAG,8660 fluorescence intensity (a.u.)
10,AAATTTGTCTTATAATATAGCTACTTCTTCACCTATTTTCCGGAGTCACCTAGTGCAG,9220 fluorescence intensity (a.u.)
11,TGGTGTTCATATTTTGGCCCGTGCTCATCAGTTTGTTTGTCGGAGTCACCTAGTGCAG,11000 fluorescence intensity (a.u.)
12,AAACATATCATTTGCAGTACTATCCTTTGACTTTGAGTGACGGAGTCACCTAGTGCAG,8170 fluorescence intensity (a.u.)
13,TTATTACGTCATATTTCCGCCCAACCATGAGCCCATTTCACGGAGTCACCTAGTGCAG,8340 fluorescence intensity (a.u.)
14,AGGGTGTGTTTAATTCTTTGGGTGTAAAATTATTGAAGTACGGAGTCACCTAGTGCAG,11200 fluorescence intensity (a.u.)
15,TGAGGAACTCCAACACATCCCATGCATACAACATTTTGACCGGAGTCACCTAGTGCAG,9920 fluorescence intensity (a.u.)
16,ACTACCTCCACTCCACCGATCAATCTGAGCCACTACGCCTCGGAGTCACCTAGTGCAG,9810 fluorescence intensity (a.u.)
17,GTATTATTATTTATGTTTCTCTAGCTATCTAAATATATAACGGAGTCACCTAGTGCAG,10100 fluorescence intensity (a.u.)
18,GTACAATGTAATAGACCACACAGCCTCTTATTCCTATTTCCGGAGTCACCTAGTGCAG,8140 fluorescence intensity (a.u.)
19,GACTGCAATTAATTGTTAACCACGAGCCATTTTTTTAATTCGGAGTCACCTAGTGCAG,8800 fluorescence intensity (a.u.)
20,AATCCGTCATTCGTAAATGTTTACTGTAGCACCACATTATCGGAGTCACCTAGTGCAG,9010 fluorescence intensity (a.u.)
21,TTCGTTCCGTTCTCTCTCTTCCTTGCCCTATCCGGAACAGCGGAGTCACCTAGTGCAG,8280 fluorescence intensity (a.u.)

row,Sequence,binding signal
1,CTTTTATTTTGCTGAAAATCAATTGGACTCGTTTGACCGTCGGAGTCACCTAGTGCAG,8410 fluorescence intensity (a.u.)
2,ACAATATAAGTCATTCTAGCATTTCCCATATTCATATTGACGGAGTCACCTAGTGCAG,8520 fluorescence intensity (a.u.)
3,TTTTCCCCTATGTGTGGTGGTGGTCCCAATTCTTTAATGTCGGAGTCACCTAGTGCAG,8320 fluorescence intensity (a.u.)
4,TTGGCGTATCCACTGAGTTTCTTTTGATCTTCACTAATCTCGGAGTCACCTAGTGCAG,8910 fluorescence intensity (a.u.)
5,TCCATCAGTCTTGCCCAAATTTATCTCGATCTCACGTGCTCGGAGTCACCTAGTGCAG,9180 fluorescence intensity (a.u.)
6,GCGTCACACCTCGCCAGGCGCCAGCCACATCAAAGCTTCCCGGAGTCACCTAGTGCAG,8250 fluorescence intensity (a.u.)
7,GAAATTTATGGTAAAATTTTTCTTACCTCTCAGTATAATTCGGAGTCACCTAGTGCAG,8970 fluorescence intensity (a.u.)
8,TCTATAGCGTTGTTGCAAGCTATGTTGTTTAGGGGCGGATCGGAGTCACCTAGTGCAG,10700 fluorescence intensity (a.u.)
9,GTTTTTCTTTGTTTTCTCTTTTCTTTTGATGTTTTTTTAGCGGAGTCACCTAGTGCAG,8040 fluorescence intensity (a.u.)
10,GCAGCCAGTTACATTTTTCAGAGAGGTGAGTTTATATTCCCGGAGTCACCTAGTGCAG,8080 fluorescence intensity (a.u.)
11,GTACAAGCTATACACGTGGTTTCATGTCTTGGCGCTTTATCGGAGTCACCTAGTGCAG,9580 fluorescence intensity (a.u.)
12,GGTTGGTGTGCAGGTCTGCGTGTGGGATTTCCGCCAGCATCGGAGTCACCTAGTGCAG,8460 fluorescence intensity (a.u.)
13,GGTATGCGCCACTGACTTCAAGCTTCTATTCATACATAATCGGAGTCACCTAGTGCAG,9870 fluorescence intensity (a.u.)
14,TCTCTCTCTCTACAAATCTCTCCCTTTTTTGTGGGTGTGTCGGAGTCACCTAGTGCAG,10600 fluorescence intensity (a.u.)
15,ACGGTTTTGTATAGTTTAGGGGTGAAGATTTCTGGTATTCCGGAGTCACCTAGTGCAG,9350 fluorescence intensity (a.u.)
16,GTGGTGTTGGTACTAGTGTGTTCGTTCCTCCTAGTAAAATCGGAGTCACCTAGTGCAG,8320 fluorescence intensity (a.u.)
17,AGTTTTATCCTCTTGTTTTGCAGTATGCCCAACAACAATGCGGAGTCACCTAGTGCAG,8770 fluorescence intensity (a.u.)
18,TGGGTTGGTGGAGTTCTCATATGGCTCAGACATGGTCTCACGGAGTCACCTAGTGCAG,8380 fluorescence intensity (a.u.)
19,GACGCAAGGGTAAGGGTAAGGGTAAGGGTAGGGCAGAGCGCGGAGTCACCTAGTGCAG,8600 fluorescence intensity (a.u.)
20,TTTGATTTGATCTTTTAGTTTTGGATGTTGGTATGCTGTGCGGAGTCACCTAGTGCAG,8590 fluorescence intensity (a.u.)
21,ATGCTTACCTCATTGCAGCTAGTCCACCATCAATTCCACTCGGAGTCACCTAGTGCAG,10000 fluorescence intensity (a.u.)
